PubChem BioAssay AID720505 – Drosophila RNAi Screening Center | 2013
The screen tested about 20,000 reagents; below is a random part of those that have a named target and a result. Over the whole deposit, about 2,100 (10%) got an active call. 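Raw plate signals without normalisation; calls rest on control-based scores that were not deposited; replicate 2 separates called from uncalled poorly.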 A plus sign joins genes that one reagent is predicted to hit. Reagent sequences are not shown. Not stated in the record: the amount of reagent, the time to read-out.

Aim: 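Knock-downs that reduce calcium influx once internal stores are emptied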 (primary screen)
Cells: Drosophila S2R+ cells
Reagent: long dsRNA against Drosophila genes
Challenge: thapsigargin (2 µM) in calcium-free buffer to empty internal stores, then 2 mM calcium added back
Detection: 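Fluo-4 signal in 384-well plates read on a FLIPR after thapsigargin (2 µM, calcium-free) store depletion and 2 mM calcium add-back; unnormalised mean endpoint per well; screen run twice, selected wells retested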
Direction: calcium signal: higher = more calcium entry after store depletion
Active means: 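Knock-downs counted as hits when calcium entry dropped relative to STIM1 positive and Rho1 negative controls present on each plate; roughly 1500 genes called, with reductions of differing size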
Meaning of the calls: active = called as lowering calcium entry; inactive = not called

Jig (GeneID 41762) [DRSC14974] scored calcium signal, replicate 1 = 124; calcium signal, replicate 2 = 120; inactive.
Depletion of Abcd1 (GeneID 43772) [DRSC17157] gave: calcium signal, replicate 1 = 121; calcium signal, replicate 2 = 119; inactive.
Against CG16953 (GeneID 42437) [DRSC15167], the values are calcium signal, replicate 1 = 172; calcium signal, replicate 2 = 315; inactive.
Cyp4e1 (GeneID 44632) [DRSC07370] scored calcium signal, replicate 1 = 151; calcium signal, replicate 2 = 111; inactive.
For Doc1 (GeneID 39039) [DRSC11146] the deposit lists calcium signal, replicate 1 = 96.1; calcium signal, replicate 2 = 84.6; inactive.
ScpX (GeneID 44183) [DRSC03430] scored calcium signal, replicate 1 = 97.9; calcium signal, replicate 2 = 122; inactive.
CG6179 (GeneID 32819) [DRSC19973] scored calcium signal, replicate 1 = 92.5; calcium signal, replicate 2 = 137; inactive.
For sip2 (GeneID 33979) [DRSC03154], the entry reads calcium signal, replicate 1 = 141; calcium signal, replicate 2 = 88.8; inactive.
After knock-down of phtf (GeneID 35583) [DRSC05023], the record shows calcium signal, replicate 1 = 135; calcium signal, replicate 2 = 127; inactive.

Individual results from above.
Under “calcium signal, replicate 1”, phtf (GeneID 35583) [DRSC05023] shows 135
Under “Outcome”, ScpX (GeneID 44183) [DRSC03430] is entered as inactive

Continued.
Against CG15894 (GeneID 31574) [DRSC18098], the entry reads calcium signal, replicate 1 = 156; calcium signal, replicate 2 = 111; inactive.
CG15894 (GeneID 31574) [DRSC18099] gave calcium signal, replicate 1 = 57.6; calcium signal, replicate 2 = 143; active.
For CG31510 (GeneID 326146) [DRSC14182] the deposit lists calcium signal, replicate 1 = 257; calcium signal, replicate 2 = 154; inactive.
Silencing of Tasp1 (GeneID 39757) [DRSC10495] gave: calcium signal, replicate 1 = 163; calcium signal, replicate 2 = 80.8; inactive.
CG7741 (GeneID 36208) [DRSC07035] gave calcium signal, replicate 1 = 135; calcium signal, replicate 2 = 225; inactive.
obe (GeneID 41891) [DRSC15736] gave calcium signal, replicate 1 = 108; calcium signal, replicate 2 = 152; inactive.
With knock-down of Hao + Pex6 [DRSC06097] the results were calcium signal, replicate 1 = 172; calcium signal, replicate 2 = 129; inactive.
After knock-down of Hao + Pex6 [DRSC06704], the record shows calcium signal, replicate 1 = 114; calcium signal, replicate 2 = 203; inactive.
With knock-down of CG32650 (GeneID 326227) [DRSC19899], the record shows calcium signal, replicate 1 = 113; calcium signal, replicate 2 = 133; inactive.
Against scrt (GeneID 38469) [DRSC08736] the deposit lists calcium signal, replicate 1 = 73.4; calcium signal, replicate 2 = 94; inactive.
scrt (GeneID 38469) [DRSC23001] showed calcium signal, replicate 1 = 144; calcium signal, replicate 2 = 137; inactive.
